According to the supplement of paper PMC10849652:
This is one part of the list.

The chains behind the UniProt entries cited, without tags or fusion partners. Where a name states a change or a piece, a line headed by the entry shows the natural chain unless it says otherwise.
UniProt Q08170: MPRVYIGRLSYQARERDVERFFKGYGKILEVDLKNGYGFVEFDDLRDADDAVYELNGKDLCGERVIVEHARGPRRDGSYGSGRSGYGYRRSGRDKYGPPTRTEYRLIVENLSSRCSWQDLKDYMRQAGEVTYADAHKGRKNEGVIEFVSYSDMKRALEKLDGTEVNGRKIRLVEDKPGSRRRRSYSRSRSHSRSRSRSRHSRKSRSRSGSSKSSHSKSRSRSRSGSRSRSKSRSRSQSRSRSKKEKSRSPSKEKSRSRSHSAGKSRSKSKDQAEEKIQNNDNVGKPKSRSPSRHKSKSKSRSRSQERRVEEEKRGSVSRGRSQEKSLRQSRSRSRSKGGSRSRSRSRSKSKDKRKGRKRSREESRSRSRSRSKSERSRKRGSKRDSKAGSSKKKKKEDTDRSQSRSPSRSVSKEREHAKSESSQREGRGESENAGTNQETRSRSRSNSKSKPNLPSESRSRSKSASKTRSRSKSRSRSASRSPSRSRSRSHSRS
UniProt Q5W111: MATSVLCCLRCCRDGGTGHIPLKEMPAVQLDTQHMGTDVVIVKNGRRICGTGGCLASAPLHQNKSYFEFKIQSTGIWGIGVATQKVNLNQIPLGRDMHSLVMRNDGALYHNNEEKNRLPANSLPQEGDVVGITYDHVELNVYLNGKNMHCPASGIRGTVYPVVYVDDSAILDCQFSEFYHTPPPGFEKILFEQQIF
UniProt O00506, whole entry, looked up: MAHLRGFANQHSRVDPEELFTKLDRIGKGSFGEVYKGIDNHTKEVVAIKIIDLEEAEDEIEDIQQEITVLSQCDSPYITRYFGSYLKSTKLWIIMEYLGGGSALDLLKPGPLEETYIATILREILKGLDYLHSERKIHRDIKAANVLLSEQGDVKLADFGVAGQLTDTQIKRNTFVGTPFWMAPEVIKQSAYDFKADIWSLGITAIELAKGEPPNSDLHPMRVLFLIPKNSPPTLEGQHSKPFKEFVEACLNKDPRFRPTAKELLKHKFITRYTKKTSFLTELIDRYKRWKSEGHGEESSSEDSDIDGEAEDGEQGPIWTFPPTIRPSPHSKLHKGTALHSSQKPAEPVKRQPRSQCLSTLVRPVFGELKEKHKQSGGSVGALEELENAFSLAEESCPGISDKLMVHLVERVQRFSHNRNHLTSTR
UniProt P05455: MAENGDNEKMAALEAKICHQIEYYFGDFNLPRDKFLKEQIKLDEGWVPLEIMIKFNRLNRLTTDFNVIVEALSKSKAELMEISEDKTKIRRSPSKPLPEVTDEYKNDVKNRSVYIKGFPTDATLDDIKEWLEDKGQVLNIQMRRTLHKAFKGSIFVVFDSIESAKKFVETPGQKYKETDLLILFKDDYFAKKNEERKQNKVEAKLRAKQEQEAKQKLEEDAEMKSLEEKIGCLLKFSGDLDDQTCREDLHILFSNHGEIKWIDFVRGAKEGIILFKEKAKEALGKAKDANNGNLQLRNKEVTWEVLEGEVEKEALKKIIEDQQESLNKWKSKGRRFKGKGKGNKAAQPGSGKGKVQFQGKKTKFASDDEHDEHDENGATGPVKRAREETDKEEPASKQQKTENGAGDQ
UniProt Q9HD15: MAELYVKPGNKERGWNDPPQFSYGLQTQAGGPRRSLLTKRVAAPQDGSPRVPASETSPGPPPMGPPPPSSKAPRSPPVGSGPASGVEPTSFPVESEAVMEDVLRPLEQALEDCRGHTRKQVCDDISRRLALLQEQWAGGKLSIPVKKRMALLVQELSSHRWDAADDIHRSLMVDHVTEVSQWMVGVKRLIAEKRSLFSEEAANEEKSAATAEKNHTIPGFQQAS
UniProt P10124: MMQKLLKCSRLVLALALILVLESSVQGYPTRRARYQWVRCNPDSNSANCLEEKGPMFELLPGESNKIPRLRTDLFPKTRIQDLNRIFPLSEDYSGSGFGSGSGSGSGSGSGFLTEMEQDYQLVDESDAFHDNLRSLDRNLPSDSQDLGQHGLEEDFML
UniProt Q9BXP5: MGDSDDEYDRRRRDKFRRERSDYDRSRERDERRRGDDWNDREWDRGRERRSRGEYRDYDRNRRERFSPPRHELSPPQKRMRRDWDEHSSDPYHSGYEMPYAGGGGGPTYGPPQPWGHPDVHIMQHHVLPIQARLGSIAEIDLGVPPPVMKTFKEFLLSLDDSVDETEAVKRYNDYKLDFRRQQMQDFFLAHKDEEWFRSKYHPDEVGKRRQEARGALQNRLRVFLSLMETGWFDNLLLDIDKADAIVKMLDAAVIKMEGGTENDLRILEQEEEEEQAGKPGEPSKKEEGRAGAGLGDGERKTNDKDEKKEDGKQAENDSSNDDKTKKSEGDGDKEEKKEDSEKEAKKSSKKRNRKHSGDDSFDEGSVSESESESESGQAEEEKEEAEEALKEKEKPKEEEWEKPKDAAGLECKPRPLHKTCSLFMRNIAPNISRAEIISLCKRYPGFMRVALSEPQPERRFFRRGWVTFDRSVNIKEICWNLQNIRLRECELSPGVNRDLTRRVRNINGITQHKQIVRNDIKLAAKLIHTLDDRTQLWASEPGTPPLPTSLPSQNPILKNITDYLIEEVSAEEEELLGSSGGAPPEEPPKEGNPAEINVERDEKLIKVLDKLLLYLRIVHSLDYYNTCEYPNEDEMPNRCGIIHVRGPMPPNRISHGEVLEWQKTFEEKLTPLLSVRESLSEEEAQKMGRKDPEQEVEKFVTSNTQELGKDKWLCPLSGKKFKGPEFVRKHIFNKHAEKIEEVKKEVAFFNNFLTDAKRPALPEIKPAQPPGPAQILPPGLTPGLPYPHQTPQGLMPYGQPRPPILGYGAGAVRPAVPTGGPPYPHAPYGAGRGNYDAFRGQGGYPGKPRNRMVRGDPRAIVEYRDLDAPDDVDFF
UniProt Q96JI7: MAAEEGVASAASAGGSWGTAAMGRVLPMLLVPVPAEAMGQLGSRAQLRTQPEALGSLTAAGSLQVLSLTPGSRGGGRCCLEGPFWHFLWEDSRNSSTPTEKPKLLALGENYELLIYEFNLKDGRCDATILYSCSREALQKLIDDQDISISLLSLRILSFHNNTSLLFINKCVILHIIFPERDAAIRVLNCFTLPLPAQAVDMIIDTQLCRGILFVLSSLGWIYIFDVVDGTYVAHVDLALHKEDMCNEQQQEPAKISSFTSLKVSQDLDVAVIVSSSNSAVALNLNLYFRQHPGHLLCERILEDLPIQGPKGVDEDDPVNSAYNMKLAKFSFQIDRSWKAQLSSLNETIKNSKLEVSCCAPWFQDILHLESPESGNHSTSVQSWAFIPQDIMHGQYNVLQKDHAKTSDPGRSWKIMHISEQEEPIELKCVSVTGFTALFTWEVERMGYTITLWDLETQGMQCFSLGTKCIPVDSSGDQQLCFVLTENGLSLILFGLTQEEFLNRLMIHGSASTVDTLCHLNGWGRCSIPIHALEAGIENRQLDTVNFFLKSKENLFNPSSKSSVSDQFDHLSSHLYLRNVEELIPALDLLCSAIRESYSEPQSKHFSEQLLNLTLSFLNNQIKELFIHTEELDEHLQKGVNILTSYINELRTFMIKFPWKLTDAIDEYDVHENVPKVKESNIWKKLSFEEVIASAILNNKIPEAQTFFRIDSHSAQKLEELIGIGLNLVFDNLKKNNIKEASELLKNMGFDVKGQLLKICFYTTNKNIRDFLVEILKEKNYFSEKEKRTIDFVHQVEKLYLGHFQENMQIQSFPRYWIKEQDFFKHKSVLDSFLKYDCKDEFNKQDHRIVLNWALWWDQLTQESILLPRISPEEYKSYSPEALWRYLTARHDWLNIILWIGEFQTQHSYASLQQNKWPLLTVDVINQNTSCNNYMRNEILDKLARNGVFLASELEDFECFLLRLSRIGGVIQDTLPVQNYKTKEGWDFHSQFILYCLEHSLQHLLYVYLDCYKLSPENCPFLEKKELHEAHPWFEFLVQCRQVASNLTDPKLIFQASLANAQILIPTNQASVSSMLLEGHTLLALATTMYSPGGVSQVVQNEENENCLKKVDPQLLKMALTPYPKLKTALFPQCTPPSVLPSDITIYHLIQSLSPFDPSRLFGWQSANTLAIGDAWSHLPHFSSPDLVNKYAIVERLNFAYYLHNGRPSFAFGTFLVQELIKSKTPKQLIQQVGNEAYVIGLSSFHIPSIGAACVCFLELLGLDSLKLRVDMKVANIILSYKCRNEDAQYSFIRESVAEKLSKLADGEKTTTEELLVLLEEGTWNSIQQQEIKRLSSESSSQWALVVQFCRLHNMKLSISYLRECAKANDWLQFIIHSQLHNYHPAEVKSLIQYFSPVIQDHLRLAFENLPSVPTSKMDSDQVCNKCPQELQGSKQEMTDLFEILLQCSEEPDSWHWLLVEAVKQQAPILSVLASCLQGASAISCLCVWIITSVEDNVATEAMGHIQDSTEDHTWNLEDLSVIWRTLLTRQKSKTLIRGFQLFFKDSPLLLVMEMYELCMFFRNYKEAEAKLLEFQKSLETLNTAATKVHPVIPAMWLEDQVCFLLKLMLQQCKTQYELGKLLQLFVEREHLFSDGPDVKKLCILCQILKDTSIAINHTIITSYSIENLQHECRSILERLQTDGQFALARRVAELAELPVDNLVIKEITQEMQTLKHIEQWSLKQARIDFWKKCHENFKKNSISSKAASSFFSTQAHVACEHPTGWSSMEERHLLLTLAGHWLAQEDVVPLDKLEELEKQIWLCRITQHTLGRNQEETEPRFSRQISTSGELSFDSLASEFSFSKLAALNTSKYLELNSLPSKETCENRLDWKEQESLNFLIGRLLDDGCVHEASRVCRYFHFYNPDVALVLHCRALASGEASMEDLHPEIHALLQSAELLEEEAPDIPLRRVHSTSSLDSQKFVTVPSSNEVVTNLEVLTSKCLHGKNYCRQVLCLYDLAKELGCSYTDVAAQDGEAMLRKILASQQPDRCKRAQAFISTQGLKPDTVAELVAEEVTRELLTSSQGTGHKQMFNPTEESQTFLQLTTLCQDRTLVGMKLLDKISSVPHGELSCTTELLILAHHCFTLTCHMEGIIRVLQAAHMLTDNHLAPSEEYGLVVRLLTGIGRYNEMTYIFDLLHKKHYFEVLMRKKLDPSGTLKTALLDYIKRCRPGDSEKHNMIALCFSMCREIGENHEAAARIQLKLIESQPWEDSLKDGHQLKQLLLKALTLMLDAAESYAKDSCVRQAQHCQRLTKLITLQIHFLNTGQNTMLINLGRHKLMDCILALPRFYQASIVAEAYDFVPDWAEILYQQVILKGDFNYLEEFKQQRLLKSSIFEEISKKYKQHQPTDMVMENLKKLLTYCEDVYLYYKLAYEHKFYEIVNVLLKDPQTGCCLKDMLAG
UniProt Q9HBM1: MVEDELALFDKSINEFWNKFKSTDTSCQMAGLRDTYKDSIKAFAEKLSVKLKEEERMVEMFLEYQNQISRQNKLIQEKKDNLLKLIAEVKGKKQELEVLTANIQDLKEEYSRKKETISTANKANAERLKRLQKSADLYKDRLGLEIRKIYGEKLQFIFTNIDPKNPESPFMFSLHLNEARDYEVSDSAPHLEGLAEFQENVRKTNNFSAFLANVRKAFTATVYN
UniProt Q69YQ0: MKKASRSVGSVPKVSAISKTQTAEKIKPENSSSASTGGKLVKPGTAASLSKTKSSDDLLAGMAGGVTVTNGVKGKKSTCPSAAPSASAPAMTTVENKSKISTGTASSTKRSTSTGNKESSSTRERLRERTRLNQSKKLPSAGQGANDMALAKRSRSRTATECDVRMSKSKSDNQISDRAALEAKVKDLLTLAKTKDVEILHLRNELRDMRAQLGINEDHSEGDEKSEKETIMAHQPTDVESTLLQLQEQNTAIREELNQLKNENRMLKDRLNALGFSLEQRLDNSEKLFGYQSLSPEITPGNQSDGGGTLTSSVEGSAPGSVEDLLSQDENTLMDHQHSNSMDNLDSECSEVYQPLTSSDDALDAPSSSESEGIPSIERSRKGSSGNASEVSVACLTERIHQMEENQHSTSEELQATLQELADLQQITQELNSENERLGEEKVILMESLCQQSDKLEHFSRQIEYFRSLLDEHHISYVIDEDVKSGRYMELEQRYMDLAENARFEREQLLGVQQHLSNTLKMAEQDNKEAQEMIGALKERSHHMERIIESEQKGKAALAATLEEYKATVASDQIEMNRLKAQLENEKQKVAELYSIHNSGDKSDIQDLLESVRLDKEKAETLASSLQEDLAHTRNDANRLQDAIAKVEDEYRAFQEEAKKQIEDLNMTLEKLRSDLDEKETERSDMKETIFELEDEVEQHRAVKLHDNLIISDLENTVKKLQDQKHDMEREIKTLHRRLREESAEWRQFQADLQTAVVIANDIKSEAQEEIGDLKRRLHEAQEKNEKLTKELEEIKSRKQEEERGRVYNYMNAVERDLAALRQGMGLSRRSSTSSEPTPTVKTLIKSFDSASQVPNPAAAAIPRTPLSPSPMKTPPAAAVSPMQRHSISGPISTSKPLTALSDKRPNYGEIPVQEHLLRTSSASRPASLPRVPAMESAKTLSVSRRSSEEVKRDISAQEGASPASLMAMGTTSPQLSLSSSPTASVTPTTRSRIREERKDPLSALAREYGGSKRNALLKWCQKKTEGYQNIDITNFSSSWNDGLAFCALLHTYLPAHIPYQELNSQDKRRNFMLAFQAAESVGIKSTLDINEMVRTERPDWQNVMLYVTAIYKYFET

Key:
Assay in all cases: log2 fold change, soluble protein after heating vs DMSO (PISA); higher = thermal stabilisation; K562 cells, 10 uM, 30 min; active = over 0.2 and 3.5 SD of the protein, either way, in both replicates (recomputed)
[1] = compound: C1=CC=C(C=C1)[C@H](COC2=CC3=C(C=C2)NC(=O)N3)NC(=O)C4=CC=CN(C4=O)CC5=CC(=C(C=C5)F)F
Summary of the method: (§1)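 K562 cells at 2×10^6 cells/mL were exposed to 10 μM compound for 30 min, then aliquots were heated for 3 min across 48°C-58°C, pooled, and extracted in PBS containing 0.5% NP-40 at 4°C. The supernatant after 21,000xg for 90 min was taken as soluble protein and measured by TMTpro 16plex LC-MS/MS with channel sums equalised. Thermal stability is reported relative to control samples, with values from duplicates. Fold changes are given on a log2 scale.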

[2] = compound: CC1=C(SC2=C1C(=N[C@H](C3=NN=C(N32)C)CC(=O)N)C4=CC=C(C=C4)Cl)C
Summary of the method: as §1

[3] = compound: CC1=C2C(=CC=C1)N=C(N(C2=O)C3=CC=CC=C3C)CN4C=NC5=C(N=CN=C54)N
Summary of the method: as §1

[4] = compound: Cc1sc2c(c1C)C(c1ccc(Cl)cc1)=N[C@@H](CC(=O)OC(C)(C)C)c1nnc(C)n1-2
Summary of the method: as §1

[5] = compound: c1ccc([C@@H]2C[C@H]2NC2CCNCC2)cc1
Summary of the method: as §1

Measured: log2 fold change

STARD7 (UniProt Q9NQZ5)
inactive: [1] -0.018 | [2] 0.075 | [3] 0.145 | [4] 0.063 | [5] -0.017

SRSF4 (UniProt Q08170)
inactive: [1] 0.09 | [2] -0.166 | [3] -0.124 | [4] 0.073 | [5] 0.096

STARD3NL (UniProt O95772)
inactive: [1] 0.027 | [2] 0.025 | [3] 0.142 | [4] 0 | [5] 0.039

STAU2 (UniProt Q9NUL3)
inactive: [1] 0.085 | [2] -0.064 | [3] -0.113 | [4] 0.352 | [5] 0.116

SPRYD7 (UniProt Q5W111)
inactive: [1] -0.02 | [2] 0.074 | [3] 0.113 | [4] -0.028 | [5] -0.049

SRSF5 (UniProt Q13243)
inactive: [1] 0.091 | [2] -0.278 | [3] -0.059 | [4] 0.062 | [5] 0

SPICE1 (UniProt Q8N0Z3)
inactive: [1] 0.096

STAU1 (UniProt O95793)
inactive: [1] 0.11 | [2] -0.32 | [3] -0.4 | [4] 0.323 | [5] 0

SRM (UniProt P19623)
inactive: [1] 0.002 | [2] 0.065 | [3] 0.031 | [4] -0.013 | [5] -0.053

SPPL2A (UniProt Q8TCT8)
inactive: [1] 0.023 | [2] 0.005 | [3] -0.128 | [4] 0.035 | [5] 0.02

SPECC1 (UniProt Q5M775)
inactive: [1] -0.017 | [2] -0.087 | [3] 0.105 | [4] -0.012 | [5] 0.037

SPRYD4 (UniProt Q8WW59)
inactive: [1] -0.023 | [2] 0.036 | [3] 0.064 | [4] 0.007 | [5] -0.032

SRD5A3 (UniProt Q9H8P0)
inactive: [1] -0.056

SRP19 (UniProt P09132)
inactive: [1] -0.042 | [2] -0.033 | [3] 0.043 | [4] -0.031 | [5] 0.132

STK17B (UniProt O94768)
inactive: [1] 0.043

SPCS3 (UniProt P61009)
inactive: [1] -0.032 | [2] -0.015 | [3] -0.009 | [4] 0.008 | [5] -0.009

STK25 (UniProt O00506)
inactive: [1] -0.022 | [2] 0.111 | [3] 0.015 | [4] -0.019 | [5] -0.016

SRP14 (UniProt P37108)
inactive: [1] 0.13 | [2] -0.272 | [3] -0.258 | [4] 0.185 | [5] 0

SSB (UniProt P05455)
inactive: [1] -0.02 | [2] 0.088 | [3] 0.014 | [4] 0.007 | [5] 0.055

STAT5A (UniProt P42229)
inactive: [1] -0.028 | [2] 0.058 | [3] 0.134 | [4] -0.006 | [5] 0.008

SREBF1 isoform 4 (UniProt P36956)
inactive: [1] 0.026

SRA1 (UniProt Q9HD15)
inactive: [1] -0.023 | [2] 0.049 | [3] 0.068 | [4] -0.059 | [5] 0.015

STIP1 isoform 2 (UniProt P31948)
inactive: [1] -0.005 | [2] 0.025 | [3] 0.019 | [4] -0.007 | [5] -0.007

SRSF6 (UniProt Q13247)
inactive: [1] -0.071 | [2] -0.453 | [3] -0.109 | [4] 0.217 | [5] 0.015

SRGN (UniProt P10124)
inactive: [1] 0.045 | [2] 0.011 | [3] 0.013 | [4] 0.086 | [5] 0.095

SRC isoform 2 (UniProt P12931)
inactive: [1] 0.016 | [2] 0.181 | [3] 0.125 | [4] 0.042 | [5] 0.003

STIM1 (UniProt Q13586)
inactive: [1] -0.051 | [2] 0.044 | [3] 0.008 | [4] -0.014 | [5] -0.019

STAT6 (UniProt P42226)
inactive: [1] -0.02 | [2] -0.019 | [3] 0.198 | [4] 0.009 | [5] -0.015

SRP54 (UniProt P61011)
inactive: [1] -0.029 | [2] 0.02 | [3] 0.028 | [4] -0.005 | [5] -0.036

SRGAP2 (UniProt O75044)
inactive: [1] 0.019 | [2] 0.048 | [3] 0.021 | [4] -0.02 | [5] -0.145

SRRT (UniProt Q9BXP5)
inactive: [1] -0.207 | [2] 0.056 | [3] 0.153 | [4] -0.024 | [5] -0.069

SS18 (UniProt Q15532)
inactive: [1] 0.002 | [2] 0.195 | [3] -0.106 | [4] -0.018 | [5] -0.094

SRSF11 (UniProt Q05519)
inactive: [1] 0.008 | [2] 0.037 | [3] 0.044 | [4] -0.082 | [5] -0.028

SPG21 (UniProt Q9NZD8)
inactive: [1] -0.128 | [2] -0.035 | [3] 0.031 | [4] -0.062 | [5] -0.02

SPATA5 (UniProt Q8NB90)
inactive: [1] 0.04 | [2] 0.002 | [3] -0.026 | [4] 0.01 | [5] 0.021

SPC24 (UniProt Q8NBT2)
inactive: [1] -0.011 | [2] 0.048 | [3] 0.047 | [4] -0.017 | [5] -0.026

STAM2 (UniProt O75886)
inactive: [1] -0.015 | [2] 0.005 | [3] 0.014 | [4] 0.016 | [5] -0.001

Pulled one by one from the list above (5):
SRRT (UniProt Q9BXP5)
inactive: [1] -0.207 | [2] 0.056 | [3] 0.153 | [4] -0.024 | [5] -0.069

SRGAP2 (UniProt O75044)
inactive: [1] 0.019 | [2] 0.048 | [3] 0.021 | [4] -0.02 | [5] -0.145

SPATA5 (UniProt Q8NB90)
inactive: [1] 0.04 | [2] 0.002 | [3] -0.026 | [4] 0.01 | [5] 0.021

STAM2 (UniProt O75886)
inactive: [1] -0.015 | [2] 0.005 | [3] 0.014 | [4] 0.016 | [5] -0.001

SRSF11 (UniProt Q05519)
inactive: [1] 0.008 | [2] 0.037 | [3] 0.044 | [4] -0.082 | [5] -0.028

Later entries

SPN (UniProt P16150)
inactive: [1] 0.027 | [2] 0.005 | [3] -0.007 | [4] 0.016 | [5] 0.022

SPG11 (UniProt Q96JI7)
inactive: [1] 0.095 | [2] 0.05 | [3] 0.444 | [4] 0.24 | [5] 0.083

SPEN (UniProt Q96T58)
inactive: [1] 0.02 | [2] -0.066 | [3] -0.011 | [4] -0.168 | [5] 0.033

SSNA1 (UniProt O43805)
inactive: [1] 0.035 | [2] 0.071 | [3] 0.064 | [4] -0.021 | [5] 0

SPATA33 isoform 2 (UniProt Q96N06)
inactive: [1] 0.134 | [2] 0.013 | [3] 0.009 | [4] 0.042 | [5] 0.046

SPART (UniProt Q8N0X7)
inactive: [1] -0.028 | [2] 0.043 | [3] 0.065 | [4] 0.018 | [5] -0.002

STK11 (UniProt Q15831)
inactive: [1] 0.007 | [2] 0.039 | [3] 0.051 | [4] 0.017 | [5] 0.07

SRCAP (UniProt Q6ZRS2)
inactive: [1] 0.074 | [2] 0.013 | [3] 0.101 | [4] -0.005 | [5] -0.136

SPP2 (UniProt Q13103)
inactive: [1] 0.065 | [2] 0 | [3] 0.119 | [4] -0.038 | [5] -0.002

SPC25 (UniProt Q9HBM1)
inactive: [1] 0.009 | [2] 0.054 | [3] 0.073 | [4] -0.014 | [5] -0.043

STAG2 (UniProt Q8N3U4)
inactive: [1] 0.012 | [2] 0.007 | [3] 0.03 | [4] -0.03 | [5] 0.039

SSBP1 (UniProt Q04837)
inactive: [1] 0.05 | [2] -0.063 | [3] -0.009 | [4] -0.019 | [5] 0.023

SPTBN1 (UniProt Q01082)
inactive: [1] -0.002 | [2] -0.033 | [3] 0.078 | [4] 0.027 | [5] 0.013

SSBP3 (UniProt Q9BWW4)
inactive: [1] 0.052 | [2] 0.048 | [3] 0.06 | [4] -0.14 | [5] 0.004

SPECC1L (UniProt Q69YQ0)
inactive: [1] 0.021 | [2] 0.055 | [3] -0.027 | [4] -0.017 | [5] 0.024

STAT5B (UniProt P51692)
inactive: [1] 0.036 | [2] 0.08 | [3] 0.05 | [4] 0.033 | [5] 0.052

SPG7 (UniProt Q9UQ90)
inactive: [1] 0.026 | [2] 0.043 | [3] 0.019 | [4] -0.02 | [5] 0.01

SSR4 (UniProt P51571)
inactive: [1] 0.045 | [2] 0.046 | [3] 0.002 | [4] -0.048 | [5] -0.018

SRP72 (UniProt O76094)
inactive: [1] -0.068 | [2] -0.016 | [3] 0.047 | [4] 0.097 | [5] -0.016
